# Data reported in PubChem BioAssay AID1347075 (National Center for Advancing Translational Sciences (NCATS), 2019).
# Hit rate of the full screen: of about 400,000 compounds, about 5,500 (1.4%) were called active. The inconclusive results got no clear call from the source; some entries with a clear call stand among them for comparison. The call rests on the fitted dose curve; in most records, active means well fitted cell-killing curve with a large enough effect; inconclusive means small, poorly fitted or top-dose-only effect, or effect the other way; inactive means flat fitted curve, though single readings scatter. A potency beside an inconclusive call is a rough fit, not a confirmed value.
# Assay: qHTS assay for MDR1-selective chemotherapeutics: Primary screen using the parental adenocarcinoma cell KB-3-1; further: nearly all actives have a fitted effect of over 60% in size
# Settings: KB-3-1 viability, CellTiter-Glo ATP luminescence, 72 h; activity change, negative = cytotoxic: at 46.1 µM (top of the series)
# Summary of the method: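 KB-3-1 cells, DMEM (no phenol red) + 10% FBS; compound by pin transfer, 72 h, 37 °C. Readout: CellTiter-Glo luminescence after 10 min. Data normalized, curve-fitted.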
# On the % scale 0 is the no-effect control and ±100 the full control effect; potency means the concentration at half of the fitted maximal effect.
SMILES,"activity change, negative = cytotoxic",Potency
O=C(CN1C(=O)S/C(=C\c2ccccc2F)C1=O)Nc1ccccc1O,inactive: 3.7%,–
Cc1cc(C)nc(/N=C(\N)Nc2ccc(S(=O)(=O)Nc3nccc(C)n3)cc2)n1,–,"inconclusive: 16.4 µM [cytotoxic, single point]"
COc1cccc(CSc2nc3cc4c(cc3cc2C)OCCO4)c1,–,"inconclusive: 20.6 µM [cytotoxic, single point]"
COC(=O)c1cc(NC(=O)c2oc(=O)c3ccccc3c2-c2ccccc2)cc(C(=O)OC)c1,inactive: 10.7%,–
Cn1c(/C=C/c2cccc(Br)c2)nc2ccccc2c1=O,–,"inconclusive: 29.1 µM [cytotoxic, single point]"
N#Cc1cnn(-c2nc3sc4c(c3c(=O)[nH]2)CCCC4)c1N,–,"inconclusive: 13 µM [cytotoxic, partial curve, poor fit]"
O=C1NC2(CCC3(CC2)OCCO3)NN1c1ccc(Cl)cc1,–,"inconclusive: 20.6 µM [cytotoxic, single point]"
COc1ccc(C2=Nn3c(nnc3-c3ccccc3C(F)(F)F)SC2)cc1OC1CCOC1 (centres undefined),–,"inconclusive: 29.1 µM [cytotoxic, single point]"
CC1=CC(C)(C)N2C(=O)C3(C(C#N)=C(N)Oc4cc(O)ccc43)c3c(C)c(C)cc1c32 (centres undefined),–,"inconclusive: 20.6 µM [cytotoxic, single point]"
NC1(C(=O)O)CSSC1,–,"inconclusive: 29.1 µM [cytotoxic, single point]"
C=CC[C@@H](CC(=O)N(CCO)Cc1ccccc1)C(=O)N[C@@H](COC(=O)[C@@H](CC=C)Cc1ccc(F)cc1)Cc1c[nH]c2ccccc12,–,"inconclusive: 29.1 µM [cytotoxic, single point]"
COc1ccc(OC)c2nc3c(C(=O)NCCN(C)C)cccc3nc12,–,"inconclusive: 29.1 µM [cytotoxic, single point]"
CCOC(=O)C1=C(C)NC2=C(C(=O)C(C(=O)OCC)C(c3ccco3)C2)C1c1ccccn1 (centres undefined),inactive: 11.4%,–
COc1cccc(NC(=O)Nc2cc(NC(=O)Nc3cccc(OC)c3)c(C)nc2C)c1,–,"inconclusive: 9.2 µM [rising, partial curve, poor fit]"
CC(C)c1ccc(CN2CCN(C(=O)CCl)CC2)cc1,–,"inconclusive: 29.1 µM [cytotoxic, single point]"
COc1ccc(O)c(/C=N/NC(=S)NCCc2ccccc2)c1,–,"inconclusive: 20.6 µM [cytotoxic, single point]"
NNC(=O)C(=O)Nc1ccc(O)cc1,–,"inconclusive: 23.1 µM [rising, partial curve, poor fit]"
Cc1ccc(S(=O)(=O)N(CC(=O)Nc2ccccc2C(=O)O)c2cccc(Cl)c2C)cc1,–,"inconclusive: 18.4 µM [cytotoxic, single point]"
CCN1CCN(c2oc(-c3ccc(COc4ccccc4C)o3)nc2C#N)CC1,–,active: 20.6 µM
Cc1ccc(-c2noc(CCCC(=O)NC3CCCCC3)n2)cc1,–,"inconclusive: 11.6 µM [cytotoxic, partial curve]"
COc1ccc(C)cc1NC(=O)c1ccc(CN2CCN(c3ccccc3)CC2)cc1,–,"inconclusive: 14.6 µM [cytotoxic, partial curve]"
Cc1ccc(OCc2nc3c4c(ncn3n2)-c2ccccc2CC42CCCC2)cc1,inactive: -17.3%,–

SMILES,"activity change, negative = cytotoxic",Potency
CCc1nnc(NS(=O)(=O)c2ccc(N=Cc3c(C)[nH]n(-c4ccc(Cl)cc4)c3=O)cc2)s1,–,"inconclusive: 29.1 µM [cytotoxic, single point]"
COc1cccc(CNC(=O)Cn2ncn3nc(-c4cccs4)cc3c2=O)c1,inactive: 10.1%,–
Cc1noc(C)c1S(=O)(=O)N(CC(=O)Nc1ccc(F)cc1F)c1ccc(C(C)C)cc1,–,"inconclusive: 20.6 µM [cytotoxic, partial curve]"
Cc1ccc2oc(-c3ccc(C)c(NC(=O)COc4ccc(Cl)cc4C)c3)nc2c1,–,"inconclusive: 20.6 µM [rising, partial curve, poor fit]"
Cc1cccc(N(C(=O)c2nsc(Cl)c2Cl)C(C(=O)NC2CCCC2)c2ccc(O)cc2)c1C (centres undefined),–,"inconclusive: 29.1 µM [cytotoxic, single point]"
Cc1ccc(CNC(=O)C2CC=CCC2C(=O)O)cc1 (centres undefined),–,"inconclusive: 2.91 µM [cytotoxic, partial curve, poor fit]"
COC(=O)C(C(=O)OC)c1ccccc1NC(=O)OCc1ccccc1,–,"inconclusive: 29.1 µM [cytotoxic, single point]"
COCc1cc(C)nc(N2CCCCC2)c1C#N,–,"inconclusive: 5.62 µM [rising, partial curve, poor fit]"
CCOc1ccc(NC(=O)COC(=O)CN2CCCCCC2=O)cc1,–,"inconclusive: 2.31 µM [rising, partial curve, poor fit]"
CSc1ccc(S(=O)(=O)NCC(=O)OC(C)C(=O)NCc2ccccc2)cc1[N+](=O)[O-] (centres undefined),–,"inconclusive: 16.4 µM [rising, partial curve, poor fit]"
CC1CCN(CC(=O)Nc2ccccc2Sc2ccccc2)CC1,inactive: -20.9%,–
CCOc1c(Br)cc(CNc2ccc3c(c2)OCCO3)cc1OC,–,active: 2.06 µM
O=C(NCc1ccco1)C1CCN(C(=O)c2cc3sccc3n2Cc2ccc(Cl)cc2)CC1,–,"inconclusive: 23.1 µM [cytotoxic, single point]"
COc1ccccc1CNS(=O)(=O)c1ccc(N2CCCC2)cc1Br,–,"inconclusive: 16.4 µM [cytotoxic, partial curve, poor fit]"
CCc1cccc(NC(=O)COC(=O)c2cc([N+](=O)[O-])ccc2N2CCOCC2)c1,–,"inconclusive: 18.4 µM [cytotoxic, single point]"
O=C(N/N=C/c1cc(Br)c(Br)o1)c1ccc2c(c1)OCCO2,inactive: -1.06%,–
Nc1nonc1C(=O)NCCN=Cc1ccccc1O,–,"inconclusive: 32.6 µM [rising, single point]"
c1ccc(C2=Nn3c(nnc3-c3cc(-c4ccccc4)n[nH]3)SC2)cc1,–,"inconclusive: 29.1 µM [cytotoxic, single point]"
O=C(N/C(=C\c1ccccc1)C(=O)N1CCCCC1)c1ccc(Br)o1,inactive: -4.46%,–
CCc1nc2c(OCCC3CCCCC3)cccn2c1N(C)C(=O)COc1ccccc1,–,"inconclusive: 29.1 µM [cytotoxic, single point]"
c1ccc(-n2cc(CNCCc3cscn3)c(-c3ccc4c(c3)OCO4)n2)cc1,–,"inconclusive: 0.0046 µM [rising, full curve, poor fit]"
CCCNC(=O)c1ccc(N(Cc2ccccc2)S(C)(=O)=O)cc1,inconclusive: -16%,–

# Full records, quoted from the list. Values in the order: activity change, negative = cytotoxic | Potency
# Cc1ccc(CNC(=O)C2CC=CCC2C(=O)O)cc1 (centres undefined) in the list: – | inconclusive: 2.91 µM [cytotoxic, partial curve, poor fit]
# COC(=O)C(C(=O)OC)c1ccccc1NC(=O)OCc1ccccc1 in the list: – | inconclusive: 29.1 µM [cytotoxic, single point]
# CCc1nc2c(OCCC3CCCCC3)cccn2c1N(C)C(=O)COc1ccccc1 in the list: – | inconclusive: 29.1 µM [cytotoxic, single point]
# O=C(NCc1ccco1)C1CCN(C(=O)c2cc3sccc3n2Cc2ccc(Cl)cc2)CC1 in the list: – | inconclusive: 23.1 µM [cytotoxic, single point]

# Continuation.

SMILES,"activity change, negative = cytotoxic",Potency
COc1ccc(-n2nc3c(c2NC(=O)c2ccc4c(c2)OCO4)CS(=O)(=O)C3)cc1,–,"inconclusive: 20.6 µM [rising, single point]"
CC12CC(O)C3C(CCC4=CC(=O)CCC43C)C1CCC2=CCO (centres undefined),–,"inconclusive: 20.6 µM [cytotoxic, single point]"
CCOC(=O)[C@]12CCC=C1N(Cc1ccc(Cl)cc1Cl)C(=O)[C@H](CC(=O)N1CCOCC1)C2,inactive: 2.92%,–
CCn1nc(C)c(NS(=O)(=O)c2ccc(C)cc2)c1C,–,"inconclusive: 20.6 µM [cytotoxic, single point]"
CC(=O)c1ccc(N2CCN(C(=O)c3cc(-c4ccncc4)nc4ccc(Br)cc34)CC2)cc1,–,"inconclusive: 20.6 µM [rising, partial curve, poor fit]"
C#CCN(C[C@@H]1[C@@H](OC(=O)Nc2cccs2)[C@@H](OC(=O)Nc2cccs2)Cn2c(=O)ccc(=O)n21)S(=O)(=O)c1ccc(C)cc1,–,"inconclusive: 5.8 µM [cytotoxic, full curve, poor fit]"
CC(NC(=O)CSc1nc2c(c(C(F)(F)F)n1)CCc1ccccc1-2)c1ccccc1 (centres undefined),–,"inconclusive: 16.4 µM [cytotoxic, single point]"
CC(C)c1cccc(C(C)C)c1NC(=O)CCN1C(=O)NC2(CCCC2)C1=O,inactive: -1.13%,–
OCCNC(=S)Nc1ccc(Cl)c(Cl)c1,inactive: -17.1%,–
Cc1ccc(Cl)cc1NC(=O)c1cc2ccccc2cc1O,–,active: 9.2 µM
C=C[C@@H]1c2cccc(C)c2N(S(=O)(=O)c2ccc(C)cc2)[C@H](c2ccc(OC(C)=O)cc2)C1(C#N)C#N,–,"inconclusive: 20.6 µM [cytotoxic, single point]"
CN1CCN(C(=O)N2c3ccccc3C=Cc3ccccc32)CC1,–,"inconclusive: 29.1 µM [cytotoxic, single point]"
CCOC(=O)c1cc2c(=O)n3ccccc3nc2n(C(C)C)c1=NC(=O)C(C)(C)Oc1ccc(Cl)cc1,inactive: -1.46%,–
Cc1nc(-c2ccc(F)cc2)sc1CCNC(=O)Cc1ccc(F)cc1,–,"inconclusive: 29.1 µM [cytotoxic, single point]"
O=C(Nc1ccc(NC(=S)NC(=O)C(c2ccccc2)c2ccccc2)cc1)c1ccccc1,–,"inconclusive: 14.6 µM [cytotoxic, partial curve, poor fit]"
O=C(Nc1ccc(Cl)c(Cl)c1)Nc1nccs1,–,active: 4.61 µM
Nc1c2c(nc3ccc(Br)cc13)N(Cc1ccccc1)CC2,–,"inconclusive: 25.9 µM [cytotoxic, single point]"
COc1ccc(-c2nc3sc(CCNC(=O)c4ccc(Br)o4)c(C)n3n2)cc1,–,"inconclusive: 29.1 µM [cytotoxic, single point]"
COc1ccc(C(c2sc3ncnn3c2O)N2CCN(c3ccccc3F)CC2)cc1OC (centres undefined),–,active: 2.91 µM
CCOC(=O)C1(CC2CCCCO2)CCN(Cc2nc(C(C)C)cs2)CC1 (centres undefined),–,"inconclusive: 18.4 µM [cytotoxic, single point]"
